Taken from: PubChem BioAssay AID1508597 (Cure First, 2020)
This is an unselected part of the about 2,100 reagents, in one setting of the screen. 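Calls flag viability under 80% in either arm, not effects specific to rucaparib; the reference for percent is not stated.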 A number with no mark means an inactive call. Not stated in the record: the 100% reference.

Assay: 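Genes whose silencing sensitises or protects ovarian cancer cells against rucaparib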 (primary screen)
System: human ovarian carcinoma lines grown from tumours: OCI-P5x (papillary serous) and OCI-C5x (clear cell)
Reagents: siRNA pool against human genes, 1.25 pmol siRNA per well
Duration: 72 h or 96 h, depending on the cell culture
Conditions: rucaparib 20 µM (about IC30) or vehicle, present until read-out
Rucaparib or vehicle: Rucaparib
Cell line: OCI-C5x (clear cell)
Measurement: 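ATP luminescence measured at 72 or 96 h according to the culture, then normalised and expressed as percent viability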
Reading the numbers: viability, normalised: higher = more viable cells remaining
Hit rule: 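Active when normalised viability falls below 80 percent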
Meaning of the calls: active = viability under 80%; inactive = viability 80% or more

DHX34 (DExH-box helicase 34), technical replicate 1: viability, normalised (%) = 47.1 (active)
DHX34 (DExH-box helicase 34), technical replicate 2: viability, normalised (%) = 45.1 (active)
DHX34 (DExH-box helicase 34), technical replicate 3: viability, normalised (%) = 42.5 (active)
NRXN2 (neurexin 2), technical replicate 1: viability, normalised (%) = 61.8 (active)
NRXN2 (neurexin 2), technical replicate 2: viability, normalised (%) = 36.5 (active)
NRXN2 (neurexin 2), technical replicate 3: viability, normalised (%) = 50.2 (active)
CLK3 (CDC like kinase 3), technical replicate 1: viability, normalised (%) = 74.7 (active)
CLK3 (CDC like kinase 3), technical replicate 2: viability, normalised (%) = 57.7 (active)
CLK3 (CDC like kinase 3), technical replicate 3: viability, normalised (%) = 83.5
BRSK1 (BR serine/threonine kinase 1), technical replicate 1: viability, normalised (%) = 50.2 (active)
BRSK1 (BR serine/threonine kinase 1), technical replicate 2: viability, normalised (%) = 48.4 (active)
BRSK1 (BR serine/threonine kinase 1), technical replicate 3: viability, normalised (%) = 53.4 (active)
SPOCK2, technical replicate 1: viability, normalised (%) = 48 (active)
SPOCK2, technical replicate 2: viability, normalised (%) = 35.7 (active)
SPOCK2, technical replicate 3: viability, normalised (%) = 35.9 (active)

A run of entries of the results above, for reference:
CLK3 (CDC like kinase 3), technical replicate 3: viability, normalised (%) = 83.5
BRSK1 (BR serine/threonine kinase 1), technical replicate 1: viability, normalised (%) = 50.2 (active)
BRSK1 (BR serine/threonine kinase 1), technical replicate 2: viability, normalised (%) = 48.4 (active)
BRSK1 (BR serine/threonine kinase 1), technical replicate 3: viability, normalised (%) = 53.4 (active)
SPOCK2, technical replicate 1: viability, normalised (%) = 48 (active)

Additional results follow:
KHK (ketohexokinase), technical replicate 1: viability, normalised (%) = 51 (active)
KHK (ketohexokinase), technical replicate 2: viability, normalised (%) = 42.5 (active)
KHK (ketohexokinase), technical replicate 3: viability, normalised (%) = 32.2 (active)
SIN3B (SIN3 transcription regulator family member B), technical replicate 1: viability, normalised (%) = 30.1 (active)
SIN3B (SIN3 transcription regulator family member B), technical replicate 2: viability, normalised (%) = 32.5 (active)
SIN3B (SIN3 transcription regulator family member B), technical replicate 3: viability, normalised (%) = 29.3 (active)
PYGO2 (pygopus family PHD finger 2), technical replicate 1: viability, normalised (%) = 54.9 (active)
PYGO2 (pygopus family PHD finger 2), technical replicate 2: viability, normalised (%) = 51.2 (active)
PYGO2 (pygopus family PHD finger 2), technical replicate 3: viability, normalised (%) = 57.1 (active)
EXT1 (exostosin glycosyltransferase 1), technical replicate 1: viability, normalised (%) = 38.5 (active)
EXT1 (exostosin glycosyltransferase 1), technical replicate 2: viability, normalised (%) = 59.3 (active)
EXT1 (exostosin glycosyltransferase 1), technical replicate 3: viability, normalised (%) = 55 (active)
AK4 (adenylate kinase 4), technical replicate 1: viability, normalised (%) = 64.1 (active)
AK4 (adenylate kinase 4), technical replicate 2: viability, normalised (%) = 66.5 (active)
AK4 (adenylate kinase 4), technical replicate 3: viability, normalised (%) = 68.9 (active)
PRKCG (protein kinase C gamma), technical replicate 1: viability, normalised (%) = 40.9 (active)
PRKCG (protein kinase C gamma), technical replicate 2: viability, normalised (%) = 60 (active)
PRKCG (protein kinase C gamma), technical replicate 3: viability, normalised (%) = 84.3
